PubChem BioAssay AID1224826, NIAID – 2016

Screen: 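Genes that change LPS-induced Tnf promoter activity in mouse macrophages when knocked down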 (primary screen)
Cells: RAW264.7 G9 macrophages from mouse bearing reporters for p65 (GFP) and the Tnf promoter (mCherry)
Reagents: siRNA pool against mouse genes, 100 nM
Time to read-out: 16 h of LPS stimulation, after 2 days of siRNA transfection
Treatment: bacterial lipopolysaccharide (Salmonella minnesota R595), 10 ng/ml
Detection: 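Nuclear mCherry signal of the Tnf promoter reporter measured by imaging after background removal, scaled to each plate median and turned into robust z-scores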
Direction: Tnf reporter robust z-score: higher = stronger Tnf promoter reporter signal after LPS; Tnf reporter intensity: higher = stronger Tnf promoter reporter signal
Active means: 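Called active when robust z-score is at most -1.3, matching the median of the Tlr4 knock-down control, or over 3; control wells and wells with under 50 cells never active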
Calls: active = Tnf reporter clearly lowered or raised; inactive = no clear change in Tnf reporter
The deposit covers about 17,000 reagents; shown is an unselected part. In the full data, about 1,110 (6.6%) got an active call. 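Active means lowered or raised reporter signal; replicate intensities are raw and not normalised per plate.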 No sequences are given here.

| target | Tnf reporter robust z-score | fewer than 50 cells in well | Tnf reporter intensity, replicate 1 | Tnf reporter intensity, replicate 2 | Call |
| --- | --- | --- | --- | --- | --- |
| Lamp3 | -0.31 | enough cells in well | 229 | 78.2 | inactive |
| Acot12 | -0.38 | enough cells in well | 117 | 153 | inactive |
| Gnal | -1.15 | enough cells in well | 114 | 111 | inactive |
| Speer4a1 | – | fewer than 50 cells per well; well left out of calls | 41.6 | 34.4 | inactive |
| Tlr5 | -0.07 | enough cells in well | 233 | 127 | inactive |
| Otud6b | -0.9 | enough cells in well | 214 | 36.6 | inactive |
| Cdk5rap1 | -0.09 | enough cells in well | 185 | 158 | inactive |
| Mboat2 | – | fewer than 50 cells per well; well left out of calls | 208 | 61.4 | inactive |
| Map6d1 | -0.12 | enough cells in well | 176 | 146 | inactive |
| Pah | 1.41 | enough cells in well | 324 | 293 | inactive |
| Polr3e | 3.32 | enough cells in well | 270 | 279 | active |
| Wdr74 | – | fewer than 50 cells per well; well left out of calls | 61.9 | 45.3 | inactive |
| Or8s8 | -0.07 | enough cells in well | 180 | 90.6 | inactive |
| Nek4 | -0.83 | enough cells in well | 121 | 135 | inactive |
| Pvalb | -0.98 | enough cells in well | 91.7 | 110 | inactive |
| Hoxa3 | -1.1 | enough cells in well | 196 | 75.1 | inactive |
| Cfl1 | 2.59 | enough cells in well | 338 | 290 | inactive |
| Abca14 | – | fewer than 50 cells per well; well left out of calls | 207 | 130 | inactive |
| Rpl41 | -0.83 | enough cells in well | 101 | 83.3 | inactive |
| Stk11ip | -0.79 | enough cells in well | 205 | 157 | inactive |
| Hs6st2 | 0.4 | enough cells in well | 322 | 157 | inactive |

Continued; the last 2 above are carried over.
| target | Tnf reporter robust z-score | fewer than 50 cells in well | Tnf reporter intensity, replicate 1 | Tnf reporter intensity, replicate 2 | Call |
| --- | --- | --- | --- | --- | --- |
| Stk11ip | -0.79 | enough cells in well | 205 | 157 | inactive |
| Hs6st2 | 0.4 | enough cells in well | 322 | 157 | inactive |
| Gsdma2 | – | fewer than 50 cells per well; well left out of calls | 66.5 | 24.4 | inactive |
| Aox4 | -1.05 | enough cells in well | 88.9 | 101 | inactive |
| Brd4 | -1.19 | enough cells in well | 84.1 | 66.4 | inactive |
| Uty | 0.88 | enough cells in well | 153 | 118 | inactive |
| Mkrn2 | 2.57 | enough cells in well | 294 | 270 | inactive |
| Ppl | -1.61 | enough cells in well | 64.6 | 43.7 | active |
| Plekho2 | -1.31 | enough cells in well | 87.9 | 130 | active |
| Sycp1 | 0.63 | enough cells in well | 126 | 127 | inactive |
| Ss18l2 | -1.27 | enough cells in well | 129 | 74.7 | inactive |
| Pcdhb17 | -0.46 | enough cells in well | 127 | 110 | inactive |
| Lsm3 | -0.61 | enough cells in well | 207 | 68.5 | inactive |
| Dhx36 | -0.65 | enough cells in well | 188 | 92.7 | inactive |
| Cox4i1 | -0.37 | enough cells in well | 205 | 109 | inactive |
| Il22ra1 | -0.07 | enough cells in well | 196 | 174 | inactive |
| Tifa | 1.77 | enough cells in well | 173 | 161 | inactive |
| Ptch1 | 0.71 | enough cells in well | 271 | 268 | inactive |
| Lims2 | 1.01 | enough cells in well | 242 | 207 | inactive |
| Vasp | 0.72 | enough cells in well | 148 | 110 | inactive |
| Apex1 | 0.71 | enough cells in well | 238 | 176 | inactive |
| Or5aq1 | 1.2 | enough cells in well | 215 | 251 | inactive |
| Ceacam12 | 0.45 | enough cells in well | 175 | 194 | inactive |
| Chrnd | -0.51 | enough cells in well | 237 | 141 | inactive |
| Spink5 | -1.31 | enough cells in well | 67 | 111 | active |
| Pnkp | 0.17 | enough cells in well | 179 | 197 | inactive |
| Disp2 | 4.43 | enough cells in well | 456 | 293 | active |
| Slc2a1 | 0.3 | enough cells in well | 235 | 162 | inactive |
| Lrtm1 | -0.7 | enough cells in well | 111 | 122 | inactive |
| Mettl8 | 1.95 | enough cells in well | 335 | 352 | inactive |
| Ikzf5 | 0.39 | enough cells in well | 154 | 126 | inactive |
| Slfn5 | – | fewer than 50 cells per well; well left out of calls | 0 | 80.7 | inactive |
| Vstm4 | – | fewer than 50 cells per well; well left out of calls | 168 | 106 | inactive |
| Bfar | -0.45 | enough cells in well | 130 | 128 | inactive |
| Map3k20 | 0.67 | enough cells in well | 241 | 168 | inactive |
| Gpr143 | -0.74 | enough cells in well | 130 | 277 | inactive |
| Mpg | -1.03 | enough cells in well | 176 | 131 | inactive |
| Gtpbp8 | 0.38 | enough cells in well | 329 | 77.6 | inactive |
| Ide | -0.54 | enough cells in well | 226 | 126 | inactive |
